Results: paper PMC11300456
These are yes or no findings as the source states them, for the method shown. Binding seen in cells or lysates may run through a third protein. A yes stands for co-enrichment or nearness to the bait. Other partners may have been found.

Protein sequences, listed by entry. Tags and fused reporters are not part of them.
UniProt P04198: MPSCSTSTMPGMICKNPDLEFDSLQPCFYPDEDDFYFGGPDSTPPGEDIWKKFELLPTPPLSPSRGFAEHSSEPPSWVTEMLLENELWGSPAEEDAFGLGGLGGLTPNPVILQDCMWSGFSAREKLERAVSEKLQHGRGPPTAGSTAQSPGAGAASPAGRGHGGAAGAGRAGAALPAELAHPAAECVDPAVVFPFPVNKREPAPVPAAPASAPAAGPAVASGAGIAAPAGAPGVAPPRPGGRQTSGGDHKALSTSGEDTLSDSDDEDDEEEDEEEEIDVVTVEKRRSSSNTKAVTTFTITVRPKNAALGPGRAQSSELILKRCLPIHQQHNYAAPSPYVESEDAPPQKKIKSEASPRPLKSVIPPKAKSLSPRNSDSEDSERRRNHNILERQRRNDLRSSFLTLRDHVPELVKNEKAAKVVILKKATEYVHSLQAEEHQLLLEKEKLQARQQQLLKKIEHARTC
UniProt P17066: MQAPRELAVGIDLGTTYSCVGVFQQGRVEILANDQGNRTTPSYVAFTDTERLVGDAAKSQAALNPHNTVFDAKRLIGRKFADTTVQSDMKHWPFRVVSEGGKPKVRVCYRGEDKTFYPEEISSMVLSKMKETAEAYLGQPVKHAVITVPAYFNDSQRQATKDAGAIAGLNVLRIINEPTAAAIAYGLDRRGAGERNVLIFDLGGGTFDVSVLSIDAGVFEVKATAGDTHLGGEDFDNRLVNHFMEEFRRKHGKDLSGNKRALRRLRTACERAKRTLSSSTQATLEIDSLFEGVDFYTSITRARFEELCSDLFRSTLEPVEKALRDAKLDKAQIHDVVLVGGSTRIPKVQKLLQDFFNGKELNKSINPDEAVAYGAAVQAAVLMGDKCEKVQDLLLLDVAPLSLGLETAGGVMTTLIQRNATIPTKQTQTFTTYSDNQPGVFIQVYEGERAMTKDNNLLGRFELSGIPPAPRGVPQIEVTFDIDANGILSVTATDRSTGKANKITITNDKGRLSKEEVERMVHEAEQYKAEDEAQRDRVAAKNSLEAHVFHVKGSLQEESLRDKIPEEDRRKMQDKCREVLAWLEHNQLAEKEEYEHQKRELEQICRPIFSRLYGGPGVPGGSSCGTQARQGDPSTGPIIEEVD
UniProt P11142: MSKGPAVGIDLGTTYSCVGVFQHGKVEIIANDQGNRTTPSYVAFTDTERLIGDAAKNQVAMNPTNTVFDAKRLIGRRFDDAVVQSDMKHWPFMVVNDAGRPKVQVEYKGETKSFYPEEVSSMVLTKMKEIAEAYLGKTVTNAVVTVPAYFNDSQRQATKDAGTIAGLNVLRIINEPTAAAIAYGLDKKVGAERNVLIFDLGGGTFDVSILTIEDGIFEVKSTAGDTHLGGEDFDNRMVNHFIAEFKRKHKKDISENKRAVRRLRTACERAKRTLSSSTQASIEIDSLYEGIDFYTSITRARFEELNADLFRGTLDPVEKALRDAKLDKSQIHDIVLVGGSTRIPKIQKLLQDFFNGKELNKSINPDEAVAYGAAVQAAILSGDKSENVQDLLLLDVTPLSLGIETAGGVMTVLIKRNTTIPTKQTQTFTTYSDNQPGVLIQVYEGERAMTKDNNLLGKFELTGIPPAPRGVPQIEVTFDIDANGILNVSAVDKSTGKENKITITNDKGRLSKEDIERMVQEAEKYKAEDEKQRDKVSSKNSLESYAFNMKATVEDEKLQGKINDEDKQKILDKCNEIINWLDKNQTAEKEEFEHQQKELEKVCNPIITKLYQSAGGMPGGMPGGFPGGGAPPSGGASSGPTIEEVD

Target: N-Myc (construct and cells not stated for the experiment) (UniProt P04198)
Assay: affinity purification with mass spectrometry; immunoprecipitation pull-down of N-Myc, label-free mass spectrometry; hits: protein quantification > 100 compared to the negative control group; cells not given

Substance: HSPA6 (from UniProt P17066 1-643)
- binding: binds

Substance: HSPA8 (HSC70) (from UniProt P11142 1-646)
- binding: binds
